Laboratory results published in PMC2700083, “A covalent peptide inhibitor of RGS4 identified in a focused one-bead, one compound library screen” (BMC Pharmacology, 2009).
Results are given in words; binding and its absence hold for the method and conditions named. Some binding calls cover weakened binding; strength is not graded here. For some of these results: Tags and fused reporters may be left off the sequences shown.

By UniProt entry, the sequences of proteins in these tests, tags left out. Where a name states a change or a piece, a line headed by the entry shows the natural chain unless it says otherwise. Chains listed by the source or under a name are the forms on record and can include a tag or linker. Residues count along the entry.
MBP-RGS4Δ51N, wild type, biotinylated (P49799, residues 52-205): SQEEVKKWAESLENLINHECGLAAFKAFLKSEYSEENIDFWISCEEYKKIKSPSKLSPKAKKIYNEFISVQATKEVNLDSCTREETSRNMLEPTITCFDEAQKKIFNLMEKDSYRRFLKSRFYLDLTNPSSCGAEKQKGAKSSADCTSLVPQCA
MBP-RGS4Δ51N C132A (P49799, form named): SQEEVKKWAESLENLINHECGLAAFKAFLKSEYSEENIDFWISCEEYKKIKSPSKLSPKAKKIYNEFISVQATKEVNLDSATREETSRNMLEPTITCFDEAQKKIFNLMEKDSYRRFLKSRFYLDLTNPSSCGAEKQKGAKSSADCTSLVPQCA
MBP-RGS4Δ51N C95A (P49799, form named): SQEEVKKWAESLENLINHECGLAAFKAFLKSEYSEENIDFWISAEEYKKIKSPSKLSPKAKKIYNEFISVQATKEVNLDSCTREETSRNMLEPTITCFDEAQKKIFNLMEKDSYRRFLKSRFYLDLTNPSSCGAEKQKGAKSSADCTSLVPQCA
MBP-RGS4Δ51N C71A (P49799, form named): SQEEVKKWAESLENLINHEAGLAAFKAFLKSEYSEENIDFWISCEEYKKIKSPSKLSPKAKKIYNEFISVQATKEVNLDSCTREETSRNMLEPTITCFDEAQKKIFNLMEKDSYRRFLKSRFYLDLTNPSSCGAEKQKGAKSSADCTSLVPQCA
MBP-RGS4Δ51N C148A (P49799, form named): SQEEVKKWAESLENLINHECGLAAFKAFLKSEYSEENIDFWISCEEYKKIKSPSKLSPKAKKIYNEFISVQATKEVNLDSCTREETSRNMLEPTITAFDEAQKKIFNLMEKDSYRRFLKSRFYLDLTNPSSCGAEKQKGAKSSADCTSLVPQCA
UniProt P59215: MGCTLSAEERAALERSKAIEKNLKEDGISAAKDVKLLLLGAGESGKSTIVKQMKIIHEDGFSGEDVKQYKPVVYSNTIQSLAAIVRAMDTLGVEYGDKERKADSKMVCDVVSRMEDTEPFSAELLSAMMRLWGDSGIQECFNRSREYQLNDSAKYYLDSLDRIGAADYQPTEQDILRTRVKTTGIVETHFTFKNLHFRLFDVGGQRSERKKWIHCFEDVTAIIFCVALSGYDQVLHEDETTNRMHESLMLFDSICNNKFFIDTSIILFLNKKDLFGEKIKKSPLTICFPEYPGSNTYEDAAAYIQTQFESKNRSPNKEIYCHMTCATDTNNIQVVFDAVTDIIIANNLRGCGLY

What was measured:
[1] = molecular target: MBP-RGS4Δ51N, wild type, biotinylated (UniProt P49799); assay: FCPIA (flow cytometry protein interaction assay, Luminex beads); dose response curves for 5nd with different RGS proteins on beads and labeled Gαo; curves constrained to 100% and 0%; both purified
[2] = molecular target: T1, RGS7 RGS domain (aa: 305–453), MBP fusion (human) (UniProt P49802); assay: as above
T1 sequence: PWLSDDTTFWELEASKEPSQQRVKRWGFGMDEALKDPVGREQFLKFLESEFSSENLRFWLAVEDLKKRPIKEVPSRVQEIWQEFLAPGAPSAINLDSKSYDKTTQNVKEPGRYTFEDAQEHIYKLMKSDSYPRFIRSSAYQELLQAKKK

[3] = molecular target: T2, RGS16 full length, MBP fusion (human) (UniProt O15492); assay: as above
T2 sequence: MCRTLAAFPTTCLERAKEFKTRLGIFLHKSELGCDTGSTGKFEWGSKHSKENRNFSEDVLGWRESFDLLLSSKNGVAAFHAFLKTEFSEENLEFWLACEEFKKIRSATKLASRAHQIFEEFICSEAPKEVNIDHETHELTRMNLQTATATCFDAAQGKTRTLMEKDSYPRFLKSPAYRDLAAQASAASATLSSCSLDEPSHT

[4] = molecular target: T3, RGS19ΔC11 (amino acids 1–209), MBP fusion (human) (UniProt P49795); assay: as above
T3 sequence: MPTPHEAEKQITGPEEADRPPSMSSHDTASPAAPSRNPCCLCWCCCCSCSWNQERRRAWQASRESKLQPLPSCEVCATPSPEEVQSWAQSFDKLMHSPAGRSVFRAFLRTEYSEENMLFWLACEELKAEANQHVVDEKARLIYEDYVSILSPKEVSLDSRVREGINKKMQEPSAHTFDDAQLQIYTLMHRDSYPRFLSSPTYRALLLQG

[5] = molecular target: T4, RGS8 full length, MBP fusion (human) (UniProt P57771); assay: as above
T4 sequence (chain, biotin (sites not stated)): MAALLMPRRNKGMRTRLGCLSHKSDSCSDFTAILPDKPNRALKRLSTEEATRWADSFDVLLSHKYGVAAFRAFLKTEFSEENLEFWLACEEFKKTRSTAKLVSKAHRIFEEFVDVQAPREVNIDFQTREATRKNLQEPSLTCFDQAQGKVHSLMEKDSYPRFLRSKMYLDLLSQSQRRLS

[6] = molecular target: MBP-RGS4Δ51N, wild type, biotinylated (UniProt P49799); assay: FCPIA (flow cytometry protein interaction assay, Luminex beads); dose curves of 5nd on RGS4 cysteine mutants (5 nM, or 20 nM for the mutants with no Cys in the domain or the C-terminus) and labeled Gαo; curves constrained to 100% and 0%; both purified
MBP-RGS4Δ51N C132A = MBP-RGS4Δ51N C132A (UniProt P49799); assay: as above
MBP-RGS4Δ51N C95A = MBP-RGS4Δ51N C95A (UniProt P49799); assay: as above
MBP-RGS4Δ51N C71A = MBP-RGS4Δ51N C71A (UniProt P49799); assay: as above
MBP-RGS4Δ51N C148A = MBP-RGS4Δ51N C148A (UniProt P49799); assay: as above
[7] = molecular target: MBP-RGS4Δ51N, wild type, biotinylated (UniProt P49799); assay: FCPIA (flow cytometry protein interaction assay, Luminex beads); RGS-biotin on avidin beads treated with 5nd (100 μM) or 5nm (100 μM), not washed, then Gαo binding read (whether the 5nm samples were washed is not stated); both purified
[8] = molecular target: T4, RGS8 full length, MBP fusion (human); assay: as above
[9] = molecular target: MBP-RGS4Δ51N, wild type, biotinylated (UniProt P49799); assay: FCPIA (flow cytometry protein interaction assay, Luminex beads); competition at one peptide concentration (50 μM unless the cell says otherwise); 5 nM wild type RGS4-biotin on avidin beads, 25 nM Gαo-Alexa Fluor 532, with AMF (AlCl3, MgCl2, NaF and GDP); both purified

Measured: binding

Gαo, Alexa Fluor 532-labeled (from UniProt P59215 1-354)
binds: all assays above
